Assay results published in article PMC12116779.
No constants are given. Whether binding was seen depends on the method and setting. For some of these results: In cells and extracts the contact can be indirect. Some entries that bind do so weakly or less than the wild type. For some of these results: Tags and fused reporters may be left off the sequences shown. One block for each binder: values may come before it.

By UniProt entry, the sequences of proteins in these tests, tags left out.
UniProt Q9UBN7: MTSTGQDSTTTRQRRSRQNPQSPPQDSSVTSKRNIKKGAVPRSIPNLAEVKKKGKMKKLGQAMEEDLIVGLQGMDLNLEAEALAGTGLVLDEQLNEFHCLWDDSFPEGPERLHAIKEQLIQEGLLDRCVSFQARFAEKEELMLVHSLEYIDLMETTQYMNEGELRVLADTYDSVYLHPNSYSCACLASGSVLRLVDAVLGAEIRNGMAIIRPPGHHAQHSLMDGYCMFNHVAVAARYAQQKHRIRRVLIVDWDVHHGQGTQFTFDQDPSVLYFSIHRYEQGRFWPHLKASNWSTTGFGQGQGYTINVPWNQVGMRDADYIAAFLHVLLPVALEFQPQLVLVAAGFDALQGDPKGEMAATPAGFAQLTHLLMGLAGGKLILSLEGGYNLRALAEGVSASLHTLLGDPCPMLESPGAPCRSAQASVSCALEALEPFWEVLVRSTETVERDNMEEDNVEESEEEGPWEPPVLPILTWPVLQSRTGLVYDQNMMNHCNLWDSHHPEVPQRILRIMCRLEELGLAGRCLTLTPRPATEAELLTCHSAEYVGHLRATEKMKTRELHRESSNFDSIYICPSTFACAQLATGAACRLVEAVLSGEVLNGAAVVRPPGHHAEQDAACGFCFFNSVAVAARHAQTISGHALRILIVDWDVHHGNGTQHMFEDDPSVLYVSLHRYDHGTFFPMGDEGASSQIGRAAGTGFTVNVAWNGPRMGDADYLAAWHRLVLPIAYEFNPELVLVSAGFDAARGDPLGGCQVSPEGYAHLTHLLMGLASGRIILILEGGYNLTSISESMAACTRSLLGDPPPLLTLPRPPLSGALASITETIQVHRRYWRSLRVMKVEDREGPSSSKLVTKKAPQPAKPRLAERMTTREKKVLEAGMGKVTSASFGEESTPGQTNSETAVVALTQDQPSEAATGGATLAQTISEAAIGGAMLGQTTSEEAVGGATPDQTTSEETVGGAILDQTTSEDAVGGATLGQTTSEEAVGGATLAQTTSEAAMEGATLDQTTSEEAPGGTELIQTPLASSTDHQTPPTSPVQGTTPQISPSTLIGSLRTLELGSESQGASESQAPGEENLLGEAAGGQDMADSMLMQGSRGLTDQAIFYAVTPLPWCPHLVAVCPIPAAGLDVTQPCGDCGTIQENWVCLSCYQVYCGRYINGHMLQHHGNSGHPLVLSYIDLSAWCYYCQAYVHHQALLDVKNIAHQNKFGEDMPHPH

Tests used:
[1] = biological target: histone deacetylase 6 (HDAC6), endogenous, HCE-2 cells (human (endogenous in HCE-2)) (UniProt Q9UBN7); test: co-IP; endogenous proteins in HCE-2 lysate; primary antibody (ENKD1 antibody or control IgG for the γ-tubulin pair) on protein A/G beads; lysis buffer with 150 mM NaCl and 1% NP-40; overnight at 4 °C; also cells (not named) transfected with GFP, GFP-HDAC6 wild-type, H215A, H610A or H215/610A
[2] = biological target: HA-HDAC6 (UniProt Q9UBN7); test: co-IP; HA-HDAC6 and GFP-ENKD1 co-transfected in HEK293T cells; lysis buffer with 150 mM NaCl and 1% NP-40; overnight at 4 °C
[3] = biological target: GST-HDAC6 (UniProt Q9UBN7); test: pull-down; 100 µg GST or GST-HDAC6 immobilised on 50 µL glutathione resin, incubated overnight at 4 °C with 100 µg His-ENKD1-CD; washed six times; immunoblotting; both purified
[4] = biological target: T1, histone deacetylase 6 (HDAC6), endogenous, mouse cornea (mouse (endogenous in cornea)) (UniProt Q9Z2V5); test: co-IP; endogenous proteins in mouse corneal lysate; primary antibody (ENKD1 antibody or control IgG for the γ-tubulin pair) on protein A/G beads; lysis buffer 50 mM Tris-HCl, 150 mM NaCl, 1 mM EDTA, 3% glycerinum, 1% NP-40; overnight at 4 °C; also corneas injected with control or HDAC6 adenoviruses
T1 sequence: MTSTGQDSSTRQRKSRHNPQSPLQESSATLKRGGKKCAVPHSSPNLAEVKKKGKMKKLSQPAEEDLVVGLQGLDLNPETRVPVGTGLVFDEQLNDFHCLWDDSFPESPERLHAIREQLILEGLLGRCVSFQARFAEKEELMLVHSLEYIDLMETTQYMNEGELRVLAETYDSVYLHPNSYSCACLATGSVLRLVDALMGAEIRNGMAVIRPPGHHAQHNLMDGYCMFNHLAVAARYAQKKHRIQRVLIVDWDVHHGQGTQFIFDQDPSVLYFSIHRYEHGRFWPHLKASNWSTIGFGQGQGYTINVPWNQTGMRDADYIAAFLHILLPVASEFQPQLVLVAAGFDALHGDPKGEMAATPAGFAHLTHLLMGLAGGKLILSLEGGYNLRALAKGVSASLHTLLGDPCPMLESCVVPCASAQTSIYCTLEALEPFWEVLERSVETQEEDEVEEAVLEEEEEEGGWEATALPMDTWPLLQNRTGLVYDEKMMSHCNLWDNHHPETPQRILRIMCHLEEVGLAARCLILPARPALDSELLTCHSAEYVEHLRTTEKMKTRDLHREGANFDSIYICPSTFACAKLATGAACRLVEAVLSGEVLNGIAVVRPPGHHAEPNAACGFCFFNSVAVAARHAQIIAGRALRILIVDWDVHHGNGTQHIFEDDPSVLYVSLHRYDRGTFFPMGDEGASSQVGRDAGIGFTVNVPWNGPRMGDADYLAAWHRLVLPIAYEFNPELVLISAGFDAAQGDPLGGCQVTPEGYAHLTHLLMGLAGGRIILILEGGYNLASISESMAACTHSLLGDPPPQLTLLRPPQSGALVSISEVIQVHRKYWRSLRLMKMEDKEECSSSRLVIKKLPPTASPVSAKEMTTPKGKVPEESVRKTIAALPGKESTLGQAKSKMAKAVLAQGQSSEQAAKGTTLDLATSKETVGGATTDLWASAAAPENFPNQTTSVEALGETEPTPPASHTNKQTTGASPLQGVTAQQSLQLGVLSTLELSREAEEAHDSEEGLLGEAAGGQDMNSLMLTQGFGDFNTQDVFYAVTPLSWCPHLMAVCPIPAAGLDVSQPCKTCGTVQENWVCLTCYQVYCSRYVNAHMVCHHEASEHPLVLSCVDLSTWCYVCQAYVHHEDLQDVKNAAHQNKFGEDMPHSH

- binding [1]: binds
B1: enkurin domain-containing protein 1 (ENKD1), endogenous, human cells (protein, UniProt Q9H0I2 1-346)
chain: MCEGPSRISGPIPPDPTLCPDNYRRPTSAQGRLEGNALKLDLLTSDRALDTTAPRGPCIGPGAGEILERGQRGVGDVLLQLEGISLGPGASLKRKDPKDHEKENLRRIREIQKRFREQERSREQGQPRPLKALWRSPKYDKVESRVKAQLQEPGPASGTESAHFLRAHSRCGPGLPPPHVSSPQPTPPGPEAKEPGLGVDFIRHNARAAKRAPRRHSCSLQVLAQVLEQQRQAQEHYNATQKGHVPHYLLERRDLWRREAEARKQSQPDPAMPPGHTRMPENQRLETLTKLLQSQSQLLRELVLLPAGADSLRAQSHRAELDRKLVQVEEAIKIFSRPKVFVKMDD

- binding [2]: binds
B2: GFP-ENKD1 (protein, UniProt Q9H0I2 1-346)
chain: B1 chain

- binding [3]: binds
B3: His-ENKD1-CD (91-250 aa) (domain or fragment, UniProt Q9H0I2 91-250)
chain: SLKRKDPKDHEKENLRRIREIQKRFREQERSREQGQPRPLKALWRSPKYDKVESRVKAQLQEPGPASGTESAHFLRAHSRCGPGLPPPHVSSPQPTPPGPEAKEPGLGVDFIRHNARAAKRAPRRHSCSLQVLAQVLEQQRQAQEHYNATQKGHVPHYLL

- binding [4]: binds
B4: enkurin domain-containing protein 1 (ENKD1), endogenous, mouse cornea (protein, UniProt Q7TSV9 1-346)
chain: MCEGPSRISGPIPPDPTLCPDYYRRPASAQGRLEGNALKLDLLTSGRDLDSSPPRGPRIRPEAREILERGQRGVGDVLLQLGCISLGSGVSPKRKNPKDHEKENLRRIKEIQRRFQDQERSREQGQPKPLKALWRSPKYDNVESRVKARMKELGPTSVTEPAHFLRAHSRCGPGLPPSRASSPQLALPGPQAKGPGLGVDFISRNALAAKRAPRRHSRSLQVLAQVQEQQRQAQERYNATQKGHVPHYLLERRDLWRKEAEARQRSQPDPSMPPGHTLMPENQRLETLNNLLQSQSQLLRELVLLPAGADSLRAQGHRAELDRKLVQIEEAIKIFSRPKVFVKMDT
